In patent publication US11155576B2, “Synthetic peptides, enzymatic formation of pericellular hydrogels/nanofibrils, and methods of use” (BRANDEIS UNIVERSITY, priority 2014, dated 2021):
Part of at least one peptide drawing is inferred or uncertain, most often the ends.

Tested on: HeLa cells
Test: Pericellular hydrogelation on HeLa cells (optical images)
Type: cell-based, human
Conditions: 560 μM at 37° C.
Method: An 11.2 mM (8.09 mg/mL) stock solution of D-2a was prepared in ddH2O. The pH was adjusted to 7.4 using 1N NaOH. 2×10^5 cells in exponential growth phase were seeded in 35 mm Petri dish with 1 mL complete culture medium. Following overnight incubation, the medium was replaced with 1 mL of medium containing D-2a (diluted from the stock solution immediately prior to use). Petri dishes were incubated at 37° C. for two hours. Next, dishes were removed from the incubator and titled on a bench to visualize the pericellular hydrogel. Prior to co-incubation with phosphatase inhibitors, cells were washed three times with medium containing Pierce phosphatase inhibitor cocktail (Thermo) (contains sodium floride, sodium orthovanadate, sodium pyrophosphate, and beta-glycerophosphate). Next, 1 mL of medium containing both the inhibitor cocktail and D-2a was applied to the cells.

O=C(Cc1ccc2ccccc2c1)N[C@@H](Cc1ccccc1)C(=O)N[C@@H](Cc1ccccc1)C(=O)N[C@@H](Cc1ccc(OP(=O)(O)O)cc1)C(=O)O [L-2a]
Pericellular hydrogel/nanofibrils formation on HeLa cells: fails to form pericellular hydrogel/nanofibrils
